This is an account of results in paper PMC7910457.

Protein sequences, listed by entry. Tags and fused reporters are not part of them.
UniProt O43581: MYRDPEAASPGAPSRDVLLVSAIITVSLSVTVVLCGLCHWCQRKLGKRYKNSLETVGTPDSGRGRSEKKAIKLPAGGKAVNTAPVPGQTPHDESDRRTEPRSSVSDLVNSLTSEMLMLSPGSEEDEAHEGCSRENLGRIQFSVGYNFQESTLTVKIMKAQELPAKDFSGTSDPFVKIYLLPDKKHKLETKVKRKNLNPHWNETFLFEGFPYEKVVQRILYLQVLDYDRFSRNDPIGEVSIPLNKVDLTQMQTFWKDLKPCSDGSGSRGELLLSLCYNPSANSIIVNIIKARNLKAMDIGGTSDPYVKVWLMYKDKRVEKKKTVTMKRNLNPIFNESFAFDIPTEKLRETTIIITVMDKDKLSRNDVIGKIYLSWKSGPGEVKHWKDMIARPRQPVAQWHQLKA

No constants are given. Whether binding was seen depends on the method and setting. Binding seen in cells or lysates may run through a third protein. A yes stands for co-enrichment or nearness to the bait. Other partners may have been found. Where a sequence is shown, tags or fusion partners need not be part of it.

The experiment deals with T1, Esyt1-GFP (UniProt Q9BSJ8).
T1 sequence: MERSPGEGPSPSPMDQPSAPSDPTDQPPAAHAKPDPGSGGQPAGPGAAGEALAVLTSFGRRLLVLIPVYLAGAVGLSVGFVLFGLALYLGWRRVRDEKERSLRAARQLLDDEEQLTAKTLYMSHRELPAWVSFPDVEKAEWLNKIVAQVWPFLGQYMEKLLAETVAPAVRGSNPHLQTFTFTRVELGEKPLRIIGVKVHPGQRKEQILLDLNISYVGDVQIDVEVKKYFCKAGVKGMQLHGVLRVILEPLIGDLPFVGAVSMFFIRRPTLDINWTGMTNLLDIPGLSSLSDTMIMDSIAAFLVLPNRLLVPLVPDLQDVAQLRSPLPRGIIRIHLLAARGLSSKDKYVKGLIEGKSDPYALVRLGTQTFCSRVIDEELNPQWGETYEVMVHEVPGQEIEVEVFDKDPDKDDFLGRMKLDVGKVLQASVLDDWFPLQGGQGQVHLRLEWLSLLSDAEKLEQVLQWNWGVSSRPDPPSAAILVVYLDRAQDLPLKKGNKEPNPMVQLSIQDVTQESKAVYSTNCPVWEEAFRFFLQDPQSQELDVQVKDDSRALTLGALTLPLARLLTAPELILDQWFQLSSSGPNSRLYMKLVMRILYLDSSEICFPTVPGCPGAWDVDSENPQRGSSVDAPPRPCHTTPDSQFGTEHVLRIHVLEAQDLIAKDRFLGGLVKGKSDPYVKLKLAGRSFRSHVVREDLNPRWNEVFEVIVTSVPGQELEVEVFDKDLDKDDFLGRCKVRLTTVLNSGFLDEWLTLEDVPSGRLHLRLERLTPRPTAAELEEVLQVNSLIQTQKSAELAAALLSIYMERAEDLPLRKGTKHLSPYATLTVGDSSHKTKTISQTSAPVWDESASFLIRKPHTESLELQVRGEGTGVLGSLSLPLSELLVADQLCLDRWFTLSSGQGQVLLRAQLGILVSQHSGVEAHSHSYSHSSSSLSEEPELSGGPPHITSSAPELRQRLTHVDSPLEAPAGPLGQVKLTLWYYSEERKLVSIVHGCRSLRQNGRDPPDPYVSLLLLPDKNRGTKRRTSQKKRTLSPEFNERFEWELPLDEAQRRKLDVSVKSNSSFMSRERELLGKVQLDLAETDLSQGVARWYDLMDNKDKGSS
As to the kind of experiment: affinity purification with mass spectrometry; 786 O/OE-SR cells transfected with Esyt1-GFP; precipitated with anti-GFP antibody (TaKaRa Co-IP kit); SDS-PAGE, in-gel trypsin digest, Orbitrap Q Exactive HF-X.

With “Synaptotagmin7 (Syt7) (from UniProt O43581 1-403)”, the binding entry is given as “binds”.
